Reference: the supplement of paper PMC10849652
This is one part of the list.

By UniProt entry, the sequences of proteins in these tests, tags left out. Where a name states a change or a piece, a line headed by the entry shows the natural chain unless it says otherwise.
UniProt Q6P1Q0: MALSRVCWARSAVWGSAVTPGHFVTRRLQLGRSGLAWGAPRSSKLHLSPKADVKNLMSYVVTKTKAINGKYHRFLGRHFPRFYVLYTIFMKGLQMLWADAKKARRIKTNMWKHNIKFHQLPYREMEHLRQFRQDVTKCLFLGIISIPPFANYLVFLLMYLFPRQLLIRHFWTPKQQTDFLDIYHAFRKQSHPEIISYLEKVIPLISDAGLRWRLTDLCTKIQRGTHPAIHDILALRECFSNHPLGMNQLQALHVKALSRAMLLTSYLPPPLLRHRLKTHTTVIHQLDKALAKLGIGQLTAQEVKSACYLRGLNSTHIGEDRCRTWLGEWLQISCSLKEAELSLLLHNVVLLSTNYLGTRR
UniProt P09382, whole entry, looked up: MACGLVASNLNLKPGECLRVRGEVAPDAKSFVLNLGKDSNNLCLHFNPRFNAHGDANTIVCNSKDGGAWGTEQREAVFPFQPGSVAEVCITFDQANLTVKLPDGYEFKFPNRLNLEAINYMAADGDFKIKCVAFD
UniProt Q6ZN17: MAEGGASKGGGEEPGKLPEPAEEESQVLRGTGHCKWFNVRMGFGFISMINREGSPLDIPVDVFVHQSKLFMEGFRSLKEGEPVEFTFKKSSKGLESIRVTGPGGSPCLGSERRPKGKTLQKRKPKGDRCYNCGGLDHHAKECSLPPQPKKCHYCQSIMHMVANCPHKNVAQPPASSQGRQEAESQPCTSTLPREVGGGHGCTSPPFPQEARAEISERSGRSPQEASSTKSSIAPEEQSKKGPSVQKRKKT
UniProt Q9H008: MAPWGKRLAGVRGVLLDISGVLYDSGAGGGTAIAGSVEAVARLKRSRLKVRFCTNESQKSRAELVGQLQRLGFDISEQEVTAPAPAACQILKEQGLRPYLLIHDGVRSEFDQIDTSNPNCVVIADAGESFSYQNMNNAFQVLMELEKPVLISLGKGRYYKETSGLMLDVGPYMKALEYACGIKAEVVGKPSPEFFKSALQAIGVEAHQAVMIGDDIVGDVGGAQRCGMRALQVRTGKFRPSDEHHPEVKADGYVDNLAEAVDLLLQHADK
UniProt Q6PJG9: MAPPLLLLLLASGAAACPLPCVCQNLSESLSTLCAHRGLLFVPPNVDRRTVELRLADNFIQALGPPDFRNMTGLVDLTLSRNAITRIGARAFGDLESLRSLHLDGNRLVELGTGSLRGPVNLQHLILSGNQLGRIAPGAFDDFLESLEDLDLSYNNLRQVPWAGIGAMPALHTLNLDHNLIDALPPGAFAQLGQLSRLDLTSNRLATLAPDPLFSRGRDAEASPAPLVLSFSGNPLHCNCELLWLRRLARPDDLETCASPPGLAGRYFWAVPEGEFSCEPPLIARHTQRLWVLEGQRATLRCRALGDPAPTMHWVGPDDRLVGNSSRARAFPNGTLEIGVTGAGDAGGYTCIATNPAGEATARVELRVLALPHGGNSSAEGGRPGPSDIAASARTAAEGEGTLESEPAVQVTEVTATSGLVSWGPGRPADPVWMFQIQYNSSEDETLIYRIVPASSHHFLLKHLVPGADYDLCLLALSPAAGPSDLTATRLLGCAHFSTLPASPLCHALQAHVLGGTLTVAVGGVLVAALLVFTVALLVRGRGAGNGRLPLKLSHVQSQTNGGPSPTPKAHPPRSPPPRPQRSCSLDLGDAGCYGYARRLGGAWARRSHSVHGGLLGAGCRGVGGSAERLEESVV
UniProt Q9H9A6: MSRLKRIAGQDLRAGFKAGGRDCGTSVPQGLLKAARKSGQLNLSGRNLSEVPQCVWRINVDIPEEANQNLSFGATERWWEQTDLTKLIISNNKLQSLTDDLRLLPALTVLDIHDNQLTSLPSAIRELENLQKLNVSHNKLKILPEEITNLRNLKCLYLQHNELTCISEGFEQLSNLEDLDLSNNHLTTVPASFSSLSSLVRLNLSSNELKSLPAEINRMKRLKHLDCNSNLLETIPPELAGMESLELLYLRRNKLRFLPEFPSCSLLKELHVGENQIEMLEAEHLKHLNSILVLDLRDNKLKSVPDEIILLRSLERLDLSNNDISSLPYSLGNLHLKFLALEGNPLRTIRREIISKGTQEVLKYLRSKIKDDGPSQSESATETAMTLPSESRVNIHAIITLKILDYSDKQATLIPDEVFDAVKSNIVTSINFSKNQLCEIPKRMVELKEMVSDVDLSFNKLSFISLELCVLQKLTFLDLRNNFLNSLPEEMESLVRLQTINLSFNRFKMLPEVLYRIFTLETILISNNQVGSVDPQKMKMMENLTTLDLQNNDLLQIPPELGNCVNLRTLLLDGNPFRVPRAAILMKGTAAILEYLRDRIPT
UniProt Q03252: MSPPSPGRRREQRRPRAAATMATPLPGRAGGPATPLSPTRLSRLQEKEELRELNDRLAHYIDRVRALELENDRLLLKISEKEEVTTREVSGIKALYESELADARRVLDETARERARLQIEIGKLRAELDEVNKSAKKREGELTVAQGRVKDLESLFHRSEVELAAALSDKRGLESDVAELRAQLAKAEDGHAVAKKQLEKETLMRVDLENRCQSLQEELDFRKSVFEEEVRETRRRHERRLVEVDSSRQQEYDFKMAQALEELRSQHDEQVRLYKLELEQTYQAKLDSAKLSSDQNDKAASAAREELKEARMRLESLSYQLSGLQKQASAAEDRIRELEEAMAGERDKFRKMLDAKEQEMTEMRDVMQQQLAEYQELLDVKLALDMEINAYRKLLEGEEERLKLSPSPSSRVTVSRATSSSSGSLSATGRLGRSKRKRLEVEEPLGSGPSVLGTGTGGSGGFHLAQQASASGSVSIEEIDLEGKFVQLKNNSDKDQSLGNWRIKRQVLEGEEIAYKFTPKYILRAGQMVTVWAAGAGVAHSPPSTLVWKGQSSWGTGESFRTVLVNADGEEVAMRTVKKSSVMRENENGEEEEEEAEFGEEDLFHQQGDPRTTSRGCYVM
UniProt P11279: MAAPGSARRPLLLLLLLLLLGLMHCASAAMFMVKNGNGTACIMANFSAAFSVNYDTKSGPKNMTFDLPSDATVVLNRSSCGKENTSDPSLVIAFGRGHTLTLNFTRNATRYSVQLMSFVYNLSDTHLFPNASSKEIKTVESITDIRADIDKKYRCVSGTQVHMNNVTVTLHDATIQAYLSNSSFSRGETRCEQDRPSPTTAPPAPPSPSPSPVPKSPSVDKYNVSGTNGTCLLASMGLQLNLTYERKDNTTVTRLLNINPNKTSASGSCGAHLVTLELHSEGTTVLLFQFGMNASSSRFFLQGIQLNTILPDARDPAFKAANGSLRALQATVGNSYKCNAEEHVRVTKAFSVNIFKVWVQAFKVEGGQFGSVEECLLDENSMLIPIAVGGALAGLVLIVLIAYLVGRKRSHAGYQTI
UniProt O43766: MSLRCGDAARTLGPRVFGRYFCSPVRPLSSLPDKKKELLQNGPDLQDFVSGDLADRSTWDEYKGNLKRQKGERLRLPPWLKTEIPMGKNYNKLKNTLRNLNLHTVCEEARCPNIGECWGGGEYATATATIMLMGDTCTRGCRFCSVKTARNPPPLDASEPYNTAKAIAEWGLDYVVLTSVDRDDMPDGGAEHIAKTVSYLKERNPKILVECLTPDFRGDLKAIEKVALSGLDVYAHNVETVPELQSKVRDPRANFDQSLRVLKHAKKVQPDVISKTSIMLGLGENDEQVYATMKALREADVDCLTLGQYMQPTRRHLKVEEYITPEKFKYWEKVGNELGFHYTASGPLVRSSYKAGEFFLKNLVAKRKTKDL
UniProt Q14847: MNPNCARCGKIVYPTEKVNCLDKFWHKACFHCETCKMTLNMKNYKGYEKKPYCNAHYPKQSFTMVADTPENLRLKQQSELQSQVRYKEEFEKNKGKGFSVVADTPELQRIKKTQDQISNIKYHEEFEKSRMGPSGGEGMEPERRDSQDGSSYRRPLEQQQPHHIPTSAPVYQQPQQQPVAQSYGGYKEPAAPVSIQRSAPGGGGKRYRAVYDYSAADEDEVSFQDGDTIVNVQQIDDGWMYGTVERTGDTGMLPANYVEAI
UniProt Q9BU23: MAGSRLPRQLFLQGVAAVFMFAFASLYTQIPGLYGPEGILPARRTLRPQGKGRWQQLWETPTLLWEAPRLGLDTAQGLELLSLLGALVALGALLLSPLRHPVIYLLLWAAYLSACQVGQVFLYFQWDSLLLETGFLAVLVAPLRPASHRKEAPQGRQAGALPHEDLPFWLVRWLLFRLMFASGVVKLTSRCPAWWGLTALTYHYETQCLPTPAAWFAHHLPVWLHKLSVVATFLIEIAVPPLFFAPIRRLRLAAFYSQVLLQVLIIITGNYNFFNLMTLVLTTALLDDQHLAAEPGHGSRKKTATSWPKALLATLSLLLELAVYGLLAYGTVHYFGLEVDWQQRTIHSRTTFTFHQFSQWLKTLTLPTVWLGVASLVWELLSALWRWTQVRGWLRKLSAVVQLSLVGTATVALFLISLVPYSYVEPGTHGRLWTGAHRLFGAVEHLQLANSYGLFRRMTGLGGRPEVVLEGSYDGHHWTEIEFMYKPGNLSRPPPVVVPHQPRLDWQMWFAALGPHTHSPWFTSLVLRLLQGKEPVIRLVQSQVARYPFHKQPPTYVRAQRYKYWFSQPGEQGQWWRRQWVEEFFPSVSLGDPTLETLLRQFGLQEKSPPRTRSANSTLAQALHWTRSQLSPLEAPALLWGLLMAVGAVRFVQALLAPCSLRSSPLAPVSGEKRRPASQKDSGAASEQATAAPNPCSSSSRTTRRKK
UniProt Q14693: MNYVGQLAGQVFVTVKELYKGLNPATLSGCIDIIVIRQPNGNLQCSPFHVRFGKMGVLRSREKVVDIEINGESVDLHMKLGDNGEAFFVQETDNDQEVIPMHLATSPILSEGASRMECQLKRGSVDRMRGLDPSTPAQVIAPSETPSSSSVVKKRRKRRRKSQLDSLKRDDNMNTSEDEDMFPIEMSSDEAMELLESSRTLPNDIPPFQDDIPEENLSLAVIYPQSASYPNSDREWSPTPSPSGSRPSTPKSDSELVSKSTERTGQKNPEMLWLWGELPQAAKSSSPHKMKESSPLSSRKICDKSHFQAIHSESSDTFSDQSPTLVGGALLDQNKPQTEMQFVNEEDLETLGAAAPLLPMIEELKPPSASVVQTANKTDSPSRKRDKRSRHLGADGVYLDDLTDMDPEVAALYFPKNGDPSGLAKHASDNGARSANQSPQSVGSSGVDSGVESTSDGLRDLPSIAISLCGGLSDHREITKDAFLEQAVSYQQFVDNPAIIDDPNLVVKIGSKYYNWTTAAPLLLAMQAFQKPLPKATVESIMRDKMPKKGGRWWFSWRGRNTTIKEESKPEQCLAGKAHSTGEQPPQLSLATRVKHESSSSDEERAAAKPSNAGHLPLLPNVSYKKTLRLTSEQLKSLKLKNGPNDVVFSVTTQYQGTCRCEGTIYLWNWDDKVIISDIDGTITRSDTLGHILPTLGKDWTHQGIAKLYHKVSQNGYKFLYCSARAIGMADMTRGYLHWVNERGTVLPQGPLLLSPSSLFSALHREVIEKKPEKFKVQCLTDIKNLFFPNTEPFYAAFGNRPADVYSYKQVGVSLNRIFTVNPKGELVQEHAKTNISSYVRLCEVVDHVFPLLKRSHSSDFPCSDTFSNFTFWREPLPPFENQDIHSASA
UniProt Q9Y2U8: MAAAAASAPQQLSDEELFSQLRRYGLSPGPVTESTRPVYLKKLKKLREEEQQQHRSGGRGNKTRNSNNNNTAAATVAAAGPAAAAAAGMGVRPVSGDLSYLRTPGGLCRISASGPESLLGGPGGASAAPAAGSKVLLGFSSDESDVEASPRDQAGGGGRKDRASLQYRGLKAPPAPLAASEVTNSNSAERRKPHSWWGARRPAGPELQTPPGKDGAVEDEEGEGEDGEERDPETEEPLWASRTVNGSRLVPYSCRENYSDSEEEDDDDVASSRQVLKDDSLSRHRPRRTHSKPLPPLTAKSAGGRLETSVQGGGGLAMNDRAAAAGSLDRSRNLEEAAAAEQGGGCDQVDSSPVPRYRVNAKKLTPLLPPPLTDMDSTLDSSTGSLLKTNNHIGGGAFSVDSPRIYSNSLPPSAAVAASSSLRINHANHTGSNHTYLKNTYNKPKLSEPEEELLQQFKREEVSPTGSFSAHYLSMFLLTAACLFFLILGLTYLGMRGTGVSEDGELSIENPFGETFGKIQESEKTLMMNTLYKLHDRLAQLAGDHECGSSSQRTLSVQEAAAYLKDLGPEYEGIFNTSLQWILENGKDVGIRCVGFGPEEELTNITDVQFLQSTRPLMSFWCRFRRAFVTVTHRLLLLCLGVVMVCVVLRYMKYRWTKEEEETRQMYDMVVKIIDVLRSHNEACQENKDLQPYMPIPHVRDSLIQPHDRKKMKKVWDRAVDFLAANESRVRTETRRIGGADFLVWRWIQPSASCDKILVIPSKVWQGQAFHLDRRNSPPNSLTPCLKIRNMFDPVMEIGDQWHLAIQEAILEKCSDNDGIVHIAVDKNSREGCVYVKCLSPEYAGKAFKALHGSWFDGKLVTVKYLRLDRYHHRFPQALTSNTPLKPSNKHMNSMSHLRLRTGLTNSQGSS

Columns and labels:
Experiment in all cases: log2 fold change, soluble protein after heating vs DMSO (PISA); higher = thermal stabilisation; K562 cells, 10 uM, 30 min; active = over 0.2 and 3.5 SD of the protein, either way, in both replicates (recomputed)
[1] = compound: Cc1ccc(NC(=O)c2ccc(CN3CC[C@H](N(C)C)C3)c(C(F)(F)F)c2)cc1Nc1nccc(-c2cncnc2)n1 [bafetinib]
Method in brief: (§1)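 Values are thermal stability changes relative to control samples and are taken from duplicates. They are stated as log2 fold changes. Before quantification by TMTpro 16plex LC-MS/MS with equalised channel sums, K562 cells at 2×10^6 cells/mL were treated with 10 μM compound for 30 min, heated in aliquots for 3 min across 48°C-58°C, pooled, extracted in PBS with 0.5% NP-40 at 4°C, and centrifuged at 21,000xg for 90 min to give the soluble supernatant.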

[2] = compound: Cc1cccc(CC(=O)N2CCc3c2ccc(-c2cn(C)c4ncnc(N)c24)c3F)n1
Method in brief: as §1

[3] = compound: Cc1cn(-c2cc(NC(=O)c3ccc(C)c(Nc4nccc(-c5cccnc5)n4)c3)cc(C(F)(F)F)c2)cn1 [nilotinib]
Method in brief: as §1

[4] = compound: Cc1nc(Nc2n[nH]c3c2CN(C(=O)N[C@H](CN(C)C)c2ccccc2)C3(C)C)c2sccc2n1
Method in brief: as §1

[5] = compound: Cc1nc(Nc2ncc(C(=O)Nc3c(C)cccc3Cl)s2)cc(N2CCN(CCO)CC2)n1 [dasatinib]
Method in brief: as §1

[6] = compound: Cc1ncc(-c2ccnc(Nc3ccc(S(C)(=O)=O)cc3)n2)n1C(C)C
Method in brief: as §1

[7] = compound: Cn1cc(-c2ccc3nnc(C(F)(F)c4ccc5ncccc5c4)n3n2)cn1
Method in brief: as §1

[8] = compound: Cn1cncc1[C@@](N)(c1ccc(Cl)cc1)c1ccc2c(c1)c(-c1cccc(Cl)c1)cc(=O)n2C [tipifarnib]
Method in brief: as §1

[9] = compound: FC(F)(F)c1ccc(/C=C/c2nc(COc3ccc(CCCCn4ccnn4)cc3)co2)cc1 [mubritinib]
Method in brief: as §1

[10] = compound: NC(=O)Nc1cc(-c2cccc(F)c2)sc1C(=O)N[C@H]1CCCNC1
Method in brief: as §1

[11] = compound: NC(=O)c1cnc(N[C@@H]2CCCC[C@@H]2N)nc1Nc1cccc(-n2nccn2)c1
Method in brief: as §1

[12] = compound: NC1(c2ccc(-c3nc4ccn5c(=O)[nH]nc5c4cc3-c3ccccc3)cc2)CCC1
Method in brief: as §1

[13] = compound: Nc1ccccc1NC(=O)c1ccc(CNC(=O)OCc2cccnc2)cc1 [entinostat]
Method in brief: as §1

[14] = compound: O=C(CCCCCCC(=O)Nc1ccccc1)NO [vorinostat]
Method in brief: as §1

[15] = compound: O=C(CCCCCCNC(=O)c1cnc(N(c2ccccc2)c2ccccc2Cl)nc1)NO [citarinostat]
Method in brief: as §1

[16] = compound: O=C(O)c1ccc2c(c1)nc(Nc1cccc(Cl)c1)c1ccncc12 [silmitasertib]
Method in brief: as §1

[17] = compound: O=C1NC(=O)C(c2cnc3ccccn23)=C1c1cn2c3c(cc(F)cc13)CN(C(=O)N1CCCCC1)CC2
Method in brief: as §1

[18] = compound: c1cc(OCCN2CCCCC2)cc(-c2n[nH]c3ccc(-c4nnc[nH]4)cc23)c1
Method in brief: as §1

[19] = compound: Cn1cc(-c2ccc3c(c2)CCN3C(=O)Cc2cccc(C(F)(F)F)c2)c2c(N)ncnc21
Method in brief: as §1

[20] = compound: NCC(=O)Nc1ccc(-n2nc(C(F)(F)F)cc2-c2ccc3c(ccc4ccccc43)c2)cc1
Method in brief: as §1

Measured: log2 fold change

LETMD1 isoform 7 (UniProt Q6P1Q0)
inactive: [1] -0.108 | [2] -0.072 | [3] -0.04 | [4] 0.01 | [5] -0.01 | [6] -0.027 | [7] -0.085 | [8] -0.102 | [9] -0.108 | [10] -0.008 | [11] -0.033 | [12] -0.02 | [13] 0.038 | [14] 0.03 | [15] 0.274 | [16] 0.031 | [17] -0.036 | [18] -0.309

LGALS1 (UniProt P09382)
inactive: [1] 0.017 | [2] 0.066 | [3] -0.005 | [4] 0.013 | [5] 0.057 | [6] 0.002 | [19] 0.08 | [7] 0.038 | [8] -0.018 | [9] 0.022 | [10] 0.073 | [11] -0.016 | [12] -0.018 | [20] 0.067 | [13] 0.025 | [14] 0.001 | [15] 0.039 | [16] -0.041 | [17] -0.065 | [18] -0.016

LIN28B (UniProt Q6ZN17)
inactive: [1] 0.048 | [2] -0.064 | [3] 0.023 | [4] -0.024 | [5] 0.077 | [6] 0.033 | [19] -0.108 | [7] -0.072 | [8] 0.027 | [9] -0.061 | [10] 0.012 | [11] 0.043 | [12] 0.186 | [20] 0.087 | [13] -0.066 | [14] -0.051 | [15] -0.015 | [16] 0.08 | [17] 0.145 | [18] -0.175

LHPP (UniProt Q9H008)
inactive: [1] -0.034 | [2] 0.006 | [3] -0.008 | [4] -0.14 | [5] 0.031 | [6] -0.049 | [19] 0.044 | [7] -0.15 | [8] 0.054 | [9] -0.032 | [10] -0.075 | [11] 0.04 | [12] -0.01 | [20] -0.006 | [13] -0.021 | [14] -0.024 | [15] -0.022 | [16] 0.02 | [17] -0.072 | [18] 0.087

LRFN4 (UniProt Q6PJG9)
inactive: [1] -0.102 | [2] 0.16 | [5] -0.138 | [19] -0.008 | [7] -0.011 | [8] 0.021 | [9] -0.008 | [10] -0.023 | [11] 0.019 | [12] -0.091 | [13] 0.113 | [14] -0.261 | [16] 0.111 | [17] -0.085

LRRC40 (UniProt Q9H9A6)
inactive: [1] 0.014 | [2] 0.011 | [3] -0.035 | [4] -0.182 | [5] -0.25 | [6] -0.026 | [19] -0.002 | [7] 0.051 | [8] -0.103 | [9] 0.108 | [10] -0.044 | [11] -0.065 | [12] -0.199 | [20] -0.07 | [13] 0.08 | [14] 0.048 | [15] -0.014 | [16] 0.04 | [17] -0.022 | [18] -0.124

LMNB2 (UniProt Q03252)
inactive: [1] -0.067 | [2] -0.078 | [3] 0.022 | [4] -0.077 | [5] 0.101 | [6] -0.158 | [19] 0.015 | [7] -0.007 | [8] 0.166 | [9] -0.043 | [10] 0.079 | [11] -0.077 | [12] 0.068 | [20] -0.09 | [13] -0.006 | [14] -0.047 | [15] 0.015 | [16] 0.018 | [17] -0.101 | [18] -0.07

LAMP1 (UniProt P11279)
inactive: [1] -0.031 | [2] 0.007 | [3] -0.019 | [4] 0.023 | [5] 0.036 | [6] -0.018 | [19] -0.011 | [7] -0.036 | [8] 0.027 | [9] 0 | [10] -0.005 | [11] -0.004 | [12] 0.062 | [20] 0.036 | [13] -0.04 | [14] -0.07 | [15] -0.006 | [16] 0.056 | [17] 0.009 | [18] -0.006

LIAS (UniProt O43766)
inactive: [1] -0.034 | [2] -0.079 | [3] 0.038 | [4] 0.003 | [5] 0.028 | [6] -0.059 | [19] -0.017 | [7] 0.059 | [8] 0.098 | [9] 0.002 | [10] -0.079 | [11] 0.014 | [12] -0.035 | [20] -0.016 | [13] -0.047 | [14] -0.17 | [15] -0.093 | [16] 0.026 | [17] 0.062 | [18] -0.022

LASP1 (UniProt Q14847)
inactive: [1] -0.054 | [2] 0.02 | [3] 0 | [4] -0.029 | [5] 0.036 | [6] -0.012 | [19] 0.011 | [7] 0.034 | [8] -0.015 | [9] 0.02 | [10] 0.018 | [11] 0.024 | [12] 0.029 | [20] 0.058 | [13] 0.001 | [14] -0.019 | [15] 0.012 | [16] -0.04 | [17] -0.042 | [18] 0.011

LMF2 (UniProt Q9BU23)
inactive: [1] -0.068 | [2] 0.024 | [3] 0.047 | [4] -0.014 | [5] 0.033 | [6] 0.026 | [19] 0.021 | [7] 0.022 | [8] 0.019 | [9] 0.052 | [10] -0.008 | [11] -0.001 | [12] -0.057 | [20] -0.089 | [13] -0.006 | [14] 0.116 | [15] -0.068 | [16] 0.008 | [17] -0.016 | [18] 0.046

Three consecutive records from above, for reference:
LHPP (UniProt Q9H008)
inactive: [1] -0.034 | [2] 0.006 | [3] -0.008 | [4] -0.14 | [5] 0.031 | [6] -0.049 | [19] 0.044 | [7] -0.15 | [8] 0.054 | [9] -0.032 | [10] -0.075 | [11] 0.04 | [12] -0.01 | [20] -0.006 | [13] -0.021 | [14] -0.024 | [15] -0.022 | [16] 0.02 | [17] -0.072 | [18] 0.087

LRFN4 (UniProt Q6PJG9)
inactive: [1] -0.102 | [2] 0.16 | [5] -0.138 | [19] -0.008 | [7] -0.011 | [8] 0.021 | [9] -0.008 | [10] -0.023 | [11] 0.019 | [12] -0.091 | [13] 0.113 | [14] -0.261 | [16] 0.111 | [17] -0.085

LRRC40 (UniProt Q9H9A6)
inactive: [1] 0.014 | [2] 0.011 | [3] -0.035 | [4] -0.182 | [5] -0.25 | [6] -0.026 | [19] -0.002 | [7] 0.051 | [8] -0.103 | [9] 0.108 | [10] -0.044 | [11] -0.065 | [12] -0.199 | [20] -0.07 | [13] 0.08 | [14] 0.048 | [15] -0.014 | [16] 0.04 | [17] -0.022 | [18] -0.124

Later entries.

LPIN1 isoform 7 (UniProt Q14693)
inactive: [1] -0.076 | [2] 0.051 | [3] -0.038 | [4] 0.046 | [5] -0.016 | [6] -0.079 | [19] -0.025 | [7] -0.058 | [8] -0.019 | [9] 0.095 | [10] -0.006 | [11] -0.011 | [12] -0.039 | [20] -0.03 | [13] -0.027 | [14] 0.136 | [15] 0.001 | [16] -0.139 | [17] -0.098 | [18] -0.048

LAMP2 isoform 2 (UniProt P13473)
inactive: [1] -0.014 | [2] -0.014 | [3] 0.018 | [4] -0.009 | [5] -0.047 | [6] 0 | [19] 0.005 | [8] 0.126 | [9] 0.003 | [11] -0.1 | [12] -0.321 | [20] -0.132 | [14] -0.113 | [15] 0.061 | [16] 0.003 | [17] 0.027 | [18] -0.275

LEMD3 (UniProt Q9Y2U8)
inactive: [1] -0.171 | [2] -0.114 | [3] -0.127 | [4] -0.026 | [5] -0.106 | [6] 0.037 | [19] 0.163 | [7] 0.049 | [8] -0.008 | [9] 0.001 | [10] -0.206 | [11] -0.029 | [12] -0.142 | [20] -0.116 | [13] -0.017 | [14] 0.035 | [15] 0.053 | [16] -0.068 | [17] -0.077 | [18] 0.057
